{
  "source": "paper PMC5996148",
  "assay_in_all_cases": "protein microarray (ProtoArray v5.0), streptavidin-Alexa Fluor 647",
  "conditions_in_all_cases": "3'-biotin; 20 mM Tris (pH 7.5), 5 mM MgCl2, 100 mM KCl, 0.1% Tween-20, A/T-rich and random oligonucleotide blockers; temperature not stated; high values mean tight binding",
  "key": {"PREP (human)": {"test_system": "PREP (human)"}, "PRKACB (human)": {"test_system": "PRKACB (human)"}, "PRKAR2A (human)": {"test_system": "PRKAR2A (human)"}, "PRKCZ (human)": {"test_system": "PRKCZ (human)"}, "PRKRIP1": {"target": "T1, PRKRIP1 (UniProt Q9H875)", "T1 sequence": "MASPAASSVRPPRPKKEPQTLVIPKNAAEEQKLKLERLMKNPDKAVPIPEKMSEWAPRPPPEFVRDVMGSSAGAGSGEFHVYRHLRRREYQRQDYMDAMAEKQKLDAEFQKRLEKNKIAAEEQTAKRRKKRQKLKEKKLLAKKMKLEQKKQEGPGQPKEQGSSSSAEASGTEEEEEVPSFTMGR"}, "PRKRIR (human)": {"test_system": "PRKRIR (human)"}, "PRMT6 (human)": {"test_system": "PRMT6 (human)"}, "PRMT7 (human)": {"test_system": "PRMT7 (human)"}, "PROCR (human)": {"test_system": "PROCR (human)"}, "PRPS1 (human)": {"test_system": "PRPS1 (human)"}},
  "note": "This is one part of the list. For some of these results: The exact form of the protein is not confirmed.",
  "data": [
    {"sequence": "GGGAGGCTGAGGCAGG [G4-1 biotinylated (PQS2)]", "values": [
      {"measurement": "binding signal", "setting": "PREP (human)", "result": -0.306, "unit": "z-score"},
      {"measurement": "binding signal", "setting": "PRKACB (human)", "result": -0.339, "unit": "z-score"},
      {"measurement": "binding signal", "setting": "PRKAR2A (human)", "result": -0.271, "unit": "z-score"},
      {"measurement": "binding signal", "setting": "PRKCZ (human)", "result": -0.295, "unit": "z-score"},
      {"measurement": "binding signal", "setting": "PRKRIP1", "result": 3.6, "unit": "z-score"},
      {"measurement": "binding signal", "setting": "PRKRIR (human)", "result": -0.334, "unit": "z-score"},
      {"measurement": "binding signal", "setting": "PRMT6 (human)", "result": -0.255, "unit": "z-score"},
      {"measurement": "binding signal", "setting": "PRMT7 (human)", "result": -0.358, "unit": "z-score"},
      {"measurement": "binding signal", "setting": "PROCR (human)", "result": -0.33, "unit": "z-score"},
      {"measurement": "binding signal", "setting": "PRPS1 (human)", "result": -0.286, "unit": "z-score"}
    ]}
  ]
}
